Data on 11 targets can be found in the supplement of paper PMC12819154, “High-throughput peptide-centric local stability assay extends protein–ligand identification to membrane proteins, tissues and bacteria” (Nature Structural & Molecular Biology, 2025).

Amino acid sequences for entries named in this document (tags omitted). A change or cut given only in a name is not applied to a line headed by its entry.
UniProt Q8WWW8: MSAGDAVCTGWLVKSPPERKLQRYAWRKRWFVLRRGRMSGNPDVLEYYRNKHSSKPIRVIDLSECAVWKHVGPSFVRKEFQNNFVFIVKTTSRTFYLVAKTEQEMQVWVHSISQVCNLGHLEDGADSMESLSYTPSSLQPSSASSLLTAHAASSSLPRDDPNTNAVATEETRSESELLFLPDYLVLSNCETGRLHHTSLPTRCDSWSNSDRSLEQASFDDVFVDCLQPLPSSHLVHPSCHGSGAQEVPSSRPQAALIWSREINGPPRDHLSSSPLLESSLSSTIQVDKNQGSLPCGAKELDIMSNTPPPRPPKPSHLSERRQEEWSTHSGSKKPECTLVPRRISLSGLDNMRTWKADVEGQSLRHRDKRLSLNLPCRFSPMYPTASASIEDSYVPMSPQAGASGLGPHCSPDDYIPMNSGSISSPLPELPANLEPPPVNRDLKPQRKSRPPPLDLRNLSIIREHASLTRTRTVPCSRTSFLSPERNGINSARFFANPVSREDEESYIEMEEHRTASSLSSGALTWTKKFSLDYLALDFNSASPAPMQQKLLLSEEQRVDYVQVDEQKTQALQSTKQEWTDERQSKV
UniProt Q8WXF1: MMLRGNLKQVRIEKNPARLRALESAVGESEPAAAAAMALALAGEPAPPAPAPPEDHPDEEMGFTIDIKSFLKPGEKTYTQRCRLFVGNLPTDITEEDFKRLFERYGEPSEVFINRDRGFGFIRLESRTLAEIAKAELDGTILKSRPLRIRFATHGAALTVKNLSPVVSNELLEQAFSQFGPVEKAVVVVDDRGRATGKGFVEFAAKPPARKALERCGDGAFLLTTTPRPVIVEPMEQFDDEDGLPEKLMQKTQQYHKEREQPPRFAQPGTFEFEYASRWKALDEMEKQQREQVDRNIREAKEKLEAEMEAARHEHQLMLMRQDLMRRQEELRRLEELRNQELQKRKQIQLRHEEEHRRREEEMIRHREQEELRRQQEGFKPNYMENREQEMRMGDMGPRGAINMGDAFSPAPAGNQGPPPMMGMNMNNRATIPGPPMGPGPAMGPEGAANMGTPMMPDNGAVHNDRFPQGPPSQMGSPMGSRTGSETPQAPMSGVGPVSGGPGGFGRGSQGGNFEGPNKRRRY
UniProt Q92622: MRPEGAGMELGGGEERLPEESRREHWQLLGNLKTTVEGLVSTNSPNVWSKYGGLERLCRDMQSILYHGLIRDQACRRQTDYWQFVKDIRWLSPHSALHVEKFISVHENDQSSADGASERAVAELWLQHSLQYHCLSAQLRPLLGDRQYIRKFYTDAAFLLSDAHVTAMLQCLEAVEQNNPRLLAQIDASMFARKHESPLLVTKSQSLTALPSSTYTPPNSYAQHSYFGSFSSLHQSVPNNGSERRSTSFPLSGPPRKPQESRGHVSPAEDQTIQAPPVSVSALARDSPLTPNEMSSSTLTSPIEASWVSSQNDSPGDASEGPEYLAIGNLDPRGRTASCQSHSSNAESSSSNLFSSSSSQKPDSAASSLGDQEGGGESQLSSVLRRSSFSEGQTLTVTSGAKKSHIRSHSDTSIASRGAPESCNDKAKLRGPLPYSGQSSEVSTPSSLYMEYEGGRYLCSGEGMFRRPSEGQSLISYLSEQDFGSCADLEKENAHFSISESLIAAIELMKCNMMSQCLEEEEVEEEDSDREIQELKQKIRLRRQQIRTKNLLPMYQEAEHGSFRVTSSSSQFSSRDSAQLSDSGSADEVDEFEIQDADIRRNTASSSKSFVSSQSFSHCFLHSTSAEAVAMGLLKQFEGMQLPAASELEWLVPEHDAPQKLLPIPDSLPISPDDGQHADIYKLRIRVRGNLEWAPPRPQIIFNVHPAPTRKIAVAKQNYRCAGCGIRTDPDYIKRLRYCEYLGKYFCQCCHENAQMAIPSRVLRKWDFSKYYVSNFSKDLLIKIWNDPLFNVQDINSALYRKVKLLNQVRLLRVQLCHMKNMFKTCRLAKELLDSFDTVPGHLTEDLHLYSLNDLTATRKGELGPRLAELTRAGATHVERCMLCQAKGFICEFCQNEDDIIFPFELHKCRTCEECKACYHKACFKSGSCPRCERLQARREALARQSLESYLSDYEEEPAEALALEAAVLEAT
UniProt Q8WTS6: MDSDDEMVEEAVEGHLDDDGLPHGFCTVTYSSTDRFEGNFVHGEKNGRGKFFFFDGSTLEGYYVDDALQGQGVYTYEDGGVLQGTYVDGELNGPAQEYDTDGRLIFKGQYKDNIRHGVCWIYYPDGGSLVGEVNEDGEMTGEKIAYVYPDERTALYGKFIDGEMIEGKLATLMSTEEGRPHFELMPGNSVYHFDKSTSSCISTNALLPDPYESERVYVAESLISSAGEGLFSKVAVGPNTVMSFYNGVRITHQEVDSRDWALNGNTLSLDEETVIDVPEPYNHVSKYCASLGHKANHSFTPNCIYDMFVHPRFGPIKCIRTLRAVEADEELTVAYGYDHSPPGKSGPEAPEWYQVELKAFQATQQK
UniProt Q8WVY7: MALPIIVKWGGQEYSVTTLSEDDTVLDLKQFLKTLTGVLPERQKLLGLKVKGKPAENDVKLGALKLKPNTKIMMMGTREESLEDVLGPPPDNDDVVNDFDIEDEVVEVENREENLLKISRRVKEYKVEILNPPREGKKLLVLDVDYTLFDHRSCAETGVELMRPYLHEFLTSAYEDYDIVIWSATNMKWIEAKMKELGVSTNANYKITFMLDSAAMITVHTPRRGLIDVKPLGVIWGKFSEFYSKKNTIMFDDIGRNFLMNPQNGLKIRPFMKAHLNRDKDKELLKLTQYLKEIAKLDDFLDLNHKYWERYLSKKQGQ
UniProt Q8WVK7: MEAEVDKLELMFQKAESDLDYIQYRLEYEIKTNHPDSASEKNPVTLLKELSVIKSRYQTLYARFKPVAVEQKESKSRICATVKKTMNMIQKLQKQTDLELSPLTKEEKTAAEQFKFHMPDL
UniProt Q8TCG2: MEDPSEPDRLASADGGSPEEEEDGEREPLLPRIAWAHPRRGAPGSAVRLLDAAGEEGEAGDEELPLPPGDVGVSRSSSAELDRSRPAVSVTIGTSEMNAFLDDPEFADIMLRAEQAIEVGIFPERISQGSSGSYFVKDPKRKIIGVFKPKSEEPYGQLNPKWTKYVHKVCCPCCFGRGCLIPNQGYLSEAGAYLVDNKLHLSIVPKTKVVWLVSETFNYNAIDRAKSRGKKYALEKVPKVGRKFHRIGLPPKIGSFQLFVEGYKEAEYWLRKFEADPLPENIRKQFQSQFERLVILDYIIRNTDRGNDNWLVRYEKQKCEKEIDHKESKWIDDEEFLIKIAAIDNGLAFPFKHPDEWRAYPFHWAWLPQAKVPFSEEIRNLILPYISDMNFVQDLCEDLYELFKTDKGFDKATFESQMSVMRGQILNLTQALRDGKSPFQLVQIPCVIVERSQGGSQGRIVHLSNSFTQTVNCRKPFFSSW
UniProt Q8WXX5: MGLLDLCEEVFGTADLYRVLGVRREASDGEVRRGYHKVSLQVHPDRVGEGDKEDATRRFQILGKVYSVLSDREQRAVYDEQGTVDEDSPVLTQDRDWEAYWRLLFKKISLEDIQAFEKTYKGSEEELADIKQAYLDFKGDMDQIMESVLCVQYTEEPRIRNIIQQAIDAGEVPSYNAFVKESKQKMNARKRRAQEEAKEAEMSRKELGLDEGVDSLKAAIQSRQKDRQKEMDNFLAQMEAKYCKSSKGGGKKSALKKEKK
UniProt Q8TDZ2: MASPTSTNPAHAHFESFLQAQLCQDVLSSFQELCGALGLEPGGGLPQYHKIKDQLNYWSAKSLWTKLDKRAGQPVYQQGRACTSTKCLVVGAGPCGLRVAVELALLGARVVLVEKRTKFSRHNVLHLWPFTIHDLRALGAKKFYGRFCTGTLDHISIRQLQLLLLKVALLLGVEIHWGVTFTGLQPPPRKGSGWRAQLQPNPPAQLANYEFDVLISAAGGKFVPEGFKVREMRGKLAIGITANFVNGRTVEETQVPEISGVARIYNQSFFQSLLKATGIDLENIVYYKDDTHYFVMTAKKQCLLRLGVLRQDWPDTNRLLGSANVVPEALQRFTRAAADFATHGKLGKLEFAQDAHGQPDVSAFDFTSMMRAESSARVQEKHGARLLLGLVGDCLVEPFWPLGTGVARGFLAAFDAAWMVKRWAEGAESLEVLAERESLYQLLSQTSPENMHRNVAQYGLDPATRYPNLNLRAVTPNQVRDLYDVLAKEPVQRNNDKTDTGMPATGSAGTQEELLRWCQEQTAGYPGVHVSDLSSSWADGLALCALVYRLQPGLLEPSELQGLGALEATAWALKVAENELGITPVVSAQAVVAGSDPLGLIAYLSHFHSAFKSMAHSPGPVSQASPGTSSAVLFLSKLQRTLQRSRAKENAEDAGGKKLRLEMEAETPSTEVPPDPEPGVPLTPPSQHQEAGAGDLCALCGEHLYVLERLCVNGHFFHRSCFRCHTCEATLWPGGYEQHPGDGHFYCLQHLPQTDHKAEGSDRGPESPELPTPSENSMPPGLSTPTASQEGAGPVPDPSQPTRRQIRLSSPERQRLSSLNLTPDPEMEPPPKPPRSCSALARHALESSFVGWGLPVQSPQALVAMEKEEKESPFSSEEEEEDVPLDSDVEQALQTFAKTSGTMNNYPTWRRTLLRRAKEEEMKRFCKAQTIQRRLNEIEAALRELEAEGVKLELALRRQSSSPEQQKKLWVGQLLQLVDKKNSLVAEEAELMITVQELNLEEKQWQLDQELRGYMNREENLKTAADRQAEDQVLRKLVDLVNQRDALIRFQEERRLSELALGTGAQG
UniProt Q92613: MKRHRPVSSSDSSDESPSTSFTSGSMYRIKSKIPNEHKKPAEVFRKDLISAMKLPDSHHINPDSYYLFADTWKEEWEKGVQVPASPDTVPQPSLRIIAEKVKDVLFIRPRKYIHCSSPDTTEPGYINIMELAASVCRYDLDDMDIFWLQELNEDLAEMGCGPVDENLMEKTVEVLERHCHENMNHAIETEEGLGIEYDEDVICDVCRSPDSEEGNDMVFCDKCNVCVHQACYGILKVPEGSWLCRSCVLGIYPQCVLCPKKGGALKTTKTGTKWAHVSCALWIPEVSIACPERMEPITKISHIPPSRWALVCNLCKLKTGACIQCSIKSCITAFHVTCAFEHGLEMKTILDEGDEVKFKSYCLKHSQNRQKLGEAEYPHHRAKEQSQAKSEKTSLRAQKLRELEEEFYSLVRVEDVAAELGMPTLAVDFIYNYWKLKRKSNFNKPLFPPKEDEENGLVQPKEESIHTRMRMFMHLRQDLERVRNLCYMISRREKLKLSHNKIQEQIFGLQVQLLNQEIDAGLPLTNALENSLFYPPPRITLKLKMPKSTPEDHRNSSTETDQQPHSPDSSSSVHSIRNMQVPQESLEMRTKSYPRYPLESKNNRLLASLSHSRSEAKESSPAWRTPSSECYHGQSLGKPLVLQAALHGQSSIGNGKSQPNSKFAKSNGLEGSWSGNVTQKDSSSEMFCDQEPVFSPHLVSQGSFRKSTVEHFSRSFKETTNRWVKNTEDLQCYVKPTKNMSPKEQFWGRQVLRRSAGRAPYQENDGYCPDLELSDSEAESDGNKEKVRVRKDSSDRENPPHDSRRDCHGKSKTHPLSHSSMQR
UniProt Q92558: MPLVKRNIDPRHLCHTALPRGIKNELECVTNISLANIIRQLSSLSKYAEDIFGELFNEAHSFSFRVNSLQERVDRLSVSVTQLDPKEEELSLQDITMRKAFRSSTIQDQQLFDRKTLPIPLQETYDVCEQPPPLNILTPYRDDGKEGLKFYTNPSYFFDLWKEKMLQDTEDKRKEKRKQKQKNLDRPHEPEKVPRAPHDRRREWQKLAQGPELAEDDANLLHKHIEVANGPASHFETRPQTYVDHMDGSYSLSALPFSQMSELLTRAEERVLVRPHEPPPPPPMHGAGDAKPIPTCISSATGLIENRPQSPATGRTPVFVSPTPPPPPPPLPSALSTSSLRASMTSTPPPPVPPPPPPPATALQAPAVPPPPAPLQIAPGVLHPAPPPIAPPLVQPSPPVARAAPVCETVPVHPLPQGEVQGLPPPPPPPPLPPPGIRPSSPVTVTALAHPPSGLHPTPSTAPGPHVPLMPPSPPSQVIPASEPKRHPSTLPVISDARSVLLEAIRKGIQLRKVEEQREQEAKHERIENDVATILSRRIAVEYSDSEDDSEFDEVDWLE

The other results are listed elsewhere or left out. Small differences around the control level are noise.

Compound in this experiment: CN[C@@H]1C[C@H]2O[C@@](C)([C@@H]1OC)n1c3ccccc3c3c4c(c5c6ccccc6n2c5c31)C(=O)NC4 [staurosporine]
Briefly: log2 fold change of tryptic peptide abundance, ligand vs vehicle (limited proteolysis) (log2 ratio); higher = more trypsin-susceptible (destabilized). As to conditions: ligand concentration: 20 uM; sample: K562 cleared lysate; digestion: 4 min, 22 C (HT-PELSA RT4min, Orbitrap Astral).
Take “GAB3 (peptide sequence: ELDIMSNTPPPRPPKPSHLSER, peptide start residue: 299) (UniProt Q8WWW8)”: the log2 fold change came out at 0.253.

Regarding “PSPC1 (peptide sequence: DRGFGFIR, peptide start residue: 116) (UniProt Q8WXF1)”, the log2 fold change was 0.37.

For “RUBCN (peptide sequence: LLAQIDASMFAR, peptide start residue: 182) (UniProt Q92622)”, the log2 fold change is -0.527.

“SETD7 (peptide sequence: AFQATQQK, peptide start residue: 359) (UniProt Q8WTS6)”: the log2 fold change is -0.00457.

With “UBLCP1 (peptide sequence: KLLVLDVDYTLFDHR, peptide start residue: 138) (UniProt Q8WVY7)”, the log2 fold change turned out to be 0.244.

Regarding “UniProt Q8WVK7 (peptide sequence: QTDLELSPLTK, peptide start residue: 95)”, the log2 fold change is -0.596.

As for “PI4K2B (peptide sequence: VPFSEEIR, peptide start residue: 372) (UniProt Q8TCG2)”, the log2 fold change is -0.418.

For “DNAJC9 (peptide sequence: VSLQVHPDR, peptide start residue: 38) (UniProt Q8WXX5)”, the log2 fold change was 0.364.

Consider “MICAL1 (peptide sequence: LWVGQLLQLVDKK, peptide start residue: 969) (UniProt Q8TDZ2)”, for which the log2 fold change was 0.162.

With “JADE3 (peptide sequence: LLASLSHSR, peptide start residue: 605) (UniProt Q92613)”, the log2 fold change was found to be 0.393.

Turning to “WASF1 (peptide sequence: RHPSTLPVISDAR, peptide start residue: 486) (UniProt Q92558)”, the log2 fold change was -0.0958.
